Here are results for one substance from paper PMC3836738.

The chains behind the UniProt entries cited, without tags or fusion partners.
UniProt Q86YI8: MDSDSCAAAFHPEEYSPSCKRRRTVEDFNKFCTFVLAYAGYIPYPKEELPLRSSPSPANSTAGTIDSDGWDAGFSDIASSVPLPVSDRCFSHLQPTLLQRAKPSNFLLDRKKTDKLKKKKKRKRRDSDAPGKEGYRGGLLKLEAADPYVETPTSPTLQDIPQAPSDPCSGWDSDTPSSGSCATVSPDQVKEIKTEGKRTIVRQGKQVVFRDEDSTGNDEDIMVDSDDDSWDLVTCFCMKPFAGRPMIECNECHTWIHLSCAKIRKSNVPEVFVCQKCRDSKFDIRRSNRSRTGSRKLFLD

Results are given in words; binding and its absence hold for the method and conditions named. In cells and extracts the contact can be indirect. Some results given as binding are weak or reduced against the parent protein; the word gives no strength.

In test [1] the target is SPOC1 (survival-time associated PHD protein in ovarian cancer 1/PHF13), endogenous (human (endogenous in H1299)) (UniProt Q86YI8). The experiment in a line: co-IP; H1299 cells infected with H5pg4100, H5pm4149 or H5pm4154 at 50 FFU per cell; total cell extracts 24 and 48 h post infection; precipitated with rabbit polyclonal SPOC1 antibody, blot with 2A6 (E1B-55K) and B6-8 (E2A/DBP).

The target of test [2] is SPOC1, exogenous, doxycyclin-induced in stably transfected DLD1 and U2OS cells (human) (UniProt Q86YI8). The experiment in a line: co-IP; DLD1 and U2OS cells with doxycyclin-induced SPOC1, infected with H5pg4100, H5pm4149 or H5pm4154 at 50 FFU per cell; total cell extracts 24 h post infection; precipitated with rabbit polyclonal SPOC1 antibody, blot with 2A6 (E1B-55K) and B6-8 (E2A/DBP).

Consider “Ad5 E2A-DBP expressed in virus-infected cells (from UniProt P03265 1-529)”, for which the binding entry in test [1] and in test [2] was “binds” throughout.
